Assay results taken from PubChem BioAssay AID1259415 (National Center for Advancing Translational Sciences (NCATS), 2018).
About 18,000 (4.4%) of roughly 410,000 compounds were called active. The inconclusive results got no clear call from the source; some entries with a clear call stand among them for comparison. No stated cut-off is given here; in the data, active means activity change below about -60%; inconclusive means no clear call, values can overlap the other calls; inactive means above about -39%.

experiment: qHTS Assay for inhibitors of the human cytomegalovirus (HCMV); settings: HFF cells, HCMV-luciferase reporter, 72 h; at 57.5 µM; hits give low values
Excerpt: NCGC Assay Overview: Infection with human cytomegalovirus (HCMV) continues to pose significant threats for pregnant women and immunocompromised hosts. HCMV causes serious morbidity and mortality in transplant recipients, and congenital HCMV is the leading infectious cause of mental retardation and deafness in children. In the 1990s, the annual costs associated with the disease burden of congenital CMV were estimated at around $2 billion. A HCMV vaccine is not available yet and HCMV therapies result in intolerable side effects and emergence of drug resistant viruses. […] Towards this goal we have developed and characterized a luciferase HCMV reporter that was initially used in 96 well plates and then optimized to 1536-well plates for utilization in screening of the MLSMR collection, the NGCG diversity collection and the NCGC Pharmaceutical Collection of approved and investigational drugs.
NCGC Assay Protocol Summary:
This is a cell-based assay for HCMV inhibition in HFFs cells. The screening used 2 compound doses and the HCMV-luciferase at MOI of 1 PFU/cell. Cells were treated and infected with HCMV. At 72 h post infection cell lysates were collected and luciferase activity was determined using the Glomax-Multi + Detection System (Promega, Madison, WI). Data were normalized to the controls for basal activity (buffer only) and known HCMV inhibitors Salinmoycin.
1536-well assay protocol for the assay:
(1) Add 3 ul CMV/HFF cell culture. 1000 cells/well in DMEM nirmal media.
(2) Incubate 16 hr at 37C.
(3) Add 23 nl control compound, 10uM of Salinomycin.
(4) Add 23 nl compounds in DMSO solution.
(5) Add 3 ul CMV suspension. Final 1 puf/ul, Virus stock 2000pfu/ul
(6) Incubate 72 hrs at 37C.
(7) Add 4 ul OneGlo Luc Reagent.
(8) Incubate 5 min at room temperature.
On the % scale 0 is the no-effect control and ±100 the full control effect.

**Q.** Which activity change, negative = inhibition does the source give for `COc1cccc(C2CC(c3ccc(Br)cc3)=NN2C(=O)c2ccncc2)c1OC` (centres undefined) here?
**A.** inactive: -11.3%

**Q.** For `Cc1ccc(S(=O)(=O)NCCc2nnc3ccc(SCc4cccnc4)nn23)cc1`, which activity change, negative = inhibition is on record?
**A.** inconclusive: -47.3%

**Q.** Which activity change, negative = inhibition does the source give for `CC(=O)N1CCOc2ccc(S(=O)(=O)NCC3CCC(C(=O)Nc4ccc(C)cn4)CC3)cc21` (centres undefined) here?
**A.** active: -68.1%

**Q.** With `COc1cc(NC(=O)c2ccc(Cl)cc2Cl)ccc1-c1cc2ccccc2oc1=O` as the compound, how does the activity change, negative = inhibition read?
**A.** active: -91.1%

**Q.** Which activity change, negative = inhibition does the source give for `COc1ccc(C=C2C(=O)NC(=S)NC2=O)cc1` here?
**A.** inconclusive: -40.9%

**Q.** Which activity change, negative = inhibition does the source give for `O=C(Cn1c(-c2ccccc2)c[n+]2ccsc12)c1ccc(Br)cc1` here?
**A.** active: -74.5%

**Q.** Which activity change, negative = inhibition does the source give for `O=C(CCC(=O)N1CCN(c2ccccn2)CC1)c1cccs1` here?
**A.** inactive: 24.3%

**Q.** For `COc1cc(C(=O)NC(C)Cc2ccccn2)ccc1OC1CCN(C(C)=O)CC1` (centres undefined), which activity change, negative = inhibition is on record?
**A.** inactive: -13.9%

**Q.** For `Cc1ccc(Cl)c(NC(=O)CN2C(=O)C(C)N(c3ccc(F)cc3)C2=O)c1Cl` (centres undefined), which activity change, negative = inhibition is on record?
**A.** inactive: -24.3%

**Q.** Which activity change, negative = inhibition does the source give for `Nc1nc(C23CC4CC(CC(C4)C2)C3)[nH]c(=O)n1` here?
**A.** inactive: -24.6%

**Q.** With `O=[N+]([O-])c1ccc(CSc2nnc(-c3cccnc3)o2)cc1` as the compound, how does the activity change, negative = inhibition read?
**A.** inconclusive: -57.2%

**Q.** With `Cc1nc2c(o1)C(=O)c1ccccc1C2=Nc1ccccc1` as the compound, how does the activity change, negative = inhibition read?
**A.** active: -99.6%

**Q.** Which activity change, negative = inhibition does the source give for `Cc1cc(C)n(-c2ccc(C(=O)OCc3ccccc3)cc2)n1` here?
**A.** inconclusive: -40.7%

**Q.** For `Cc1ccc2nc(SC(C)C(=O)N3CCCCC3)[nH]c2c1` (centres undefined), which activity change, negative = inhibition is on record?
**A.** inactive: 41.4%

**Q.** For `Cc1ccn2cc(C(=O)NC3CCN(Cc4ccccc4)CC3)nc2c1`, which activity change, negative = inhibition is on record?
**A.** inconclusive: -43.9%

**Q.** For `CCc1c(C)c(C#N)c2nc3ccccc3n2c1NCCCN(C)C`, which activity change, negative = inhibition is on record?
**A.** inactive: 0.592%

**Q.** For `O=C(CNc1cc(S(=O)(=O)N2CCOCC2)ccc1N1CCCC1)N1CCc2ccccc21`, which activity change, negative = inhibition is on record?
**A.** inconclusive: -48%

**Q.** For `COc1cc(-c2nnc(SCCOc3ccccc3)o2)cc(OC)c1OC`, which activity change, negative = inhibition is on record?
**A.** inactive: 4.11%

**Q.** For `Clc1ccc(CNc2ncnc3[nH]ncc23)c(Cl)c1`, which activity change, negative = inhibition is on record?
**A.** inconclusive: -46.5%

**Q.** Which activity change, negative = inhibition does the source give for `CC(C)(C)c1ccc(C(=O)Nc2nnc3n2CCS3)cc1` here?
**A.** active: -84.2%

**Q.** With `COc1ccc(-c2ccnc(-c3ccncc3)n2)cc1` as the compound, how does the activity change, negative = inhibition read?
**A.** inactive: 7.95%

**Q.** With `Cc1cc(C(=O)CSc2nc3ccccc3o2)c(C)n1CC1CCCO1` (centres undefined) as the compound, how does the activity change, negative = inhibition read?
**A.** active: -69.8%

**Q.** For `Cc1oc2c(C)c3oc(=O)c(CCC(=O)N4CCCCC4)c(C)c3cc2c1C`, which activity change, negative = inhibition is on record?
**A.** inconclusive: -56.1%

**Q.** Which activity change, negative = inhibition does the source give for `COc1cccc(NC(=S)N(CCCN2CCCC2)Cc2ccco2)c1` here?
**A.** inconclusive: -40.3%

**Q.** For `CCN(CC)C(=O)Cn1cc(S(=O)(=O)CC(=O)NCCc2ccccc2)c2ccccc21`, which activity change, negative = inhibition is on record?
**A.** inactive: -39.8%

**Q.** With `CCC(=O)N1Cc2cc(C(=O)NCC(F)(F)F)nc(-c3cccc(-c4cncnc4)c3)c2[C@H]1CCO` as the compound, how does the activity change, negative = inhibition read?
**A.** inactive: 14.2%

**Q.** For `CC(C)(O)C#Cc1ccc(N2C(c3ccsc3)=Cc3ccc(F)cc3C2c2c[nH]c3ccccc23)cc1` (centres undefined), which activity change, negative = inhibition is on record?
**A.** active: -63.5%

**Q.** With `COCCCNC(=O)CSc1nc2ccccc2c(=O)n1CCCN1CCCCC1` as the compound, how does the activity change, negative = inhibition read?
**A.** inactive: -0.442%

**Q.** Which activity change, negative = inhibition does the source give for `CC(C)NC(=O)C1(C)CCN1C(=O)c1ccc(F)c(Cl)c1` (centres undefined) here?
**A.** inconclusive: -40.8%

**Q.** Which activity change, negative = inhibition does the source give for `COc1ccc(Br)cc1CNC(=O)C1CCN(S(=O)(=O)N2CCCCC2)CC1` here?
**A.** inconclusive: -49.7%

**Q.** For `Cc1cccc(Nc2nc(N3CCCCC3)nc(N3CCCCC3)n2)c1`, which activity change, negative = inhibition is on record?
**A.** inconclusive: -55.7%

**Q.** Which activity change, negative = inhibition does the source give for `CCCCOc1nc2ccccc2nc1C(C#N)C(=O)NC1CCCCC1` (centres undefined) here?
**A.** inconclusive: -56.1%

**Q.** For `O=C1Nc2ccc(F)cc2C12SCCS2`, which activity change, negative = inhibition is on record?
**A.** active: -107%

**Q.** For `Cc1cccc(C(=O)NCCNc2nc3cc(C)c(C)cc3cc2C)c1`, which activity change, negative = inhibition is on record?
**A.** inconclusive: -46.7%

**Q.** With `c1ccc(CNc2nc(NCCc3ccncc3)c3sccc3n2)cc1` as the compound, how does the activity change, negative = inhibition read?
**A.** inconclusive: -45.7%

**Q.** With `CCc1nc2nc(C)cc(Nc3ccc(F)c(Cl)c3)n2n1` as the compound, how does the activity change, negative = inhibition read?
**A.** inactive: -29.5%

**Q.** Which activity change, negative = inhibition does the source give for `Cc1ccc(-n2cc(CNC(C)c3cnn(C)c3)c(-c3ccc(F)cc3)n2)cc1` (centres undefined) here?
**A.** inactive: -39.3%

**Q.** For `COc1ccnc(Nc2ccc(C)c(C)c2)c1C#N`, which activity change, negative = inhibition is on record?
**A.** inactive: 13.4%

**Q.** For `CCn1ccnc1CNC(=O)c1ccc(OC2CCN(C(=O)COC)CC2)cc1`, which activity change, negative = inhibition is on record?
**A.** inactive: -32.8%

**Q.** Which activity change, negative = inhibition does the source give for `CN(C)NC(=S)NC1CC2CCC1C2` (centres undefined) here?
**A.** active: -61.1%

**Q.** Which activity change, negative = inhibition does the source give for `COc1ccc(NS(=O)(=O)c2ccc(C(=O)N3CCC(C)CC3)cc2)cc1` here?
**A.** active: -66.2%

**Q.** Which activity change, negative = inhibition does the source give for `CCOCCCNC(=S)N1CCN(c2nc(-c3ccc(F)cc3)cs2)CC1` here?
**A.** active: -84.8%

**Q.** For `COc1ccc(Oc2cnc3ccccc3n2)cc1`, which activity change, negative = inhibition is on record?
**A.** active: -63.1%

**Q.** For `O=C(CCS(=O)(=O)c1ccc(Cl)cc1)Nc1ccccc1Br`, which activity change, negative = inhibition is on record?
**A.** active: -97.7%

**Q.** Which activity change, negative = inhibition does the source give for `CCc1ccccc1NC(=O)c1ccc2c(c1)c(C)c(C)n2Cc1ccccc1` here?
**A.** inconclusive: 0%

**Q.** With `Cc1cccc(N2CCN(C(=O)CCCSc3nc4ccccc4[nH]3)CC2)c1C` as the compound, how does the activity change, negative = inhibition read?
**A.** inconclusive: -46.8%

**Q.** For `COc1ccc(NC(=O)COc2ccccc2Cc2ccccc2)cc1S(N)(=O)=O`, which activity change, negative = inhibition is on record?
**A.** active: -72.9%

**Q.** With `CCCc1nn(C)c(C(=O)Nc2ccc(C(C)(C)C)cc2)c1Cl` as the compound, how does the activity change, negative = inhibition read?
**A.** inactive: -37.7%

**Q.** Which activity change, negative = inhibition does the source give for `CC(C)OC(=O)C1CC(C)(O)C(=O)C(C(=O)OC(C)C)C1c1ccc([N+](=O)[O-])cc1` (centres undefined) here?
**A.** active: -64.3%

**Q.** With `COc1ccc(NC(=O)C2Cc3c(-c4ccc(NC(C)=O)cc4)ccnc3O2)cn1` (centres undefined) as the compound, how does the activity change, negative = inhibition read?
**A.** inactive: 13.1%

**Q.** Which activity change, negative = inhibition does the source give for `COc1ccc(C(O)c2ncc(-c3ccccc3F)[nH]2)cc1` (centres undefined) here?
**A.** inactive: 21.1%

**Q.** Which activity change, negative = inhibition does the source give for `NC1=CC(=O)C(=O)c2cccnc21` here?
**A.** active: -78.2%

**Q.** For `CCC1CN(C(=O)N2CCC(C(=O)NCCC3=CCCCC3)CC2)c2ccccc2O1` (centres undefined), which activity change, negative = inhibition is on record?
**A.** inconclusive: -43.3%

**Q.** For `CCOP(=O)(OCC)c1nc(-c2ccc(Br)cc2)oc1N1CCCCC1`, which activity change, negative = inhibition is on record?
**A.** inconclusive: -52.6%

**Q.** Which activity change, negative = inhibition does the source give for `CCOC(=O)C1(CCOC)CCN(Cc2ccccc2-c2ccco2)CC1` here?
**A.** inconclusive: -51.8%

**Q.** With `COc1cc(OC)cc(C(=O)Nc2cccc(-c3cn4ccsc4n3)c2)c1` as the compound, how does the activity change, negative = inhibition read?
**A.** inconclusive: -51.2%

**Q.** For `CCOc1ccc(C(=O)NC(C(=O)N2CCC2)C(C)C)cc1` (centres undefined), which activity change, negative = inhibition is on record?
**A.** inactive: 9.75%

**Q.** Which activity change, negative = inhibition does the source give for `CCn1c(O)c(C=Nc2ccccc2)n(-c2ccccc2)c1=S` here?
**A.** inconclusive: -43.6%

**Q.** With `CN(C(=O)CSc1nc(-c2ccccc2)c(-c2ccccc2)o1)C1CCS(=O)(=O)C1` (centres undefined) as the compound, how does the activity change, negative = inhibition read?
**A.** active: -63.6%
